Measured values reported in patent publication US10266482B2, “Long-term memory inducing agent” (NATIONAL UNIVERSITY CORPORATION TOKYO MEDICAL AND DENTAL …, priority 2017, dated 2019).
At least one compound was matched to its structure with a doubt left. Some entries share one result that the patent states for a list of compounds.

Columns and labels:
young crickets [1] = experiment: AMK-related synthetic compounds inducing long-term memories in young crickets; assay type: in vivo, Gryllus bimaculatus; details: 3 μl of 1 μg/ml to the brain 20 minutes after single-time training
Method: Male (young) crickets about one week old following molting into their adult stage were used. Each of the crickets was placed in a 100 ml beaker three days before the experiment, and deprived of water for 2-3 days to enhance the desire of taking water. As the feed, about 10 pieces of insect feed were placed into the beaker.
In the same manner as “1.2, Olfactory associative conditioning” in Example 1, learning/training for smell and reward associative conditioning was conducted.
In the same manner as “1.3. Smell preference test” in Example 1, a test of smell preference was carried out.
As drugs, the AMK-related synthetic compounds (Compounds 1-10) synthesized in Example 2 above were used. For all of the drugs, 1 mg of the drug was initially dissolved in 100 μl of DMSO, and then diluted with physiological saline for crickets that was 10000 times the amount of the drug solution (final concentration: 1 μg/ml). In the administration experiments, 3 μl was administered to the brain via an aperture opened through a simple eye of the head using a 10-μl syringe.
Processing was conducted in the same manner as “1.5. Statistical processing” in Example 1.

young crickets [2] = experiment: Olfactory associative learning test in young crickets (single-time training, memory a day after); assay type: in vivo, Gryllus bimaculatus; details: for timing of administration sufficient to form long-term memory: time following the single-time training, melatonin and AFMK 5 μM, AMK 1 μM
Method: Male crickets about one week old (young) or three week old (aged) following molting into adult forms were used. Each of the crickets was placed into a 100 ml beaker three days before the experiment, and deprived of water for 2-3 days to enhance the desire of taking water. As the feed, about 10 pieces of insect feed were placed into the beaker.
A 1-ml syringe was used for smell and reward associative conditioning upon learning/training. The syringe contained water as the reward while a piece of paper (3 mm×3 mm) perfumed with peppermint essence was pierced into the needle to about 1 cm from the tip thereof. In this learning/training, the filter paper on the needle was brought near the antennae of the cricket to allow it to smell for 3 seconds and then a drop of water was put out from the tip of the needle and applied to the mouth of the cricket. When the associative conditioning was conducted for four times, the conditionings were conducted at intervals of 5 minutes.
Smell preference was examined by placing each cricket into a test arena. The arena consisted of a “standby chamber” and a “test chamber”. The floor of the “test chamber” had two holes each with a diameter of 4 cm which were communicated with two smell sources. The smell source was a plastic pot containing filter paper perfumed with essence of a smell (peppermint or vanilla) and covered with a gauze lid. In the preference test, each cricket was placed into the test chamber and allowed to walk freely for 4 minutes to search for the two smell sources. Two minutes after the start of the test, a rotary board having the smell sources was rotated to reverse the positions of the vanilla and the peppermint smells. During the test, the time the cricket spent placing its mouth to the gauze of the smell source was measured as a visiting time to the smell source, and the ratio of the visiting times of the two types of smells (PI value: preference index) was calculated according to the following formula to assess the relative preference to the mint smell. PI value=Tp/(Tp+Tv)×100 • Tp: Searching time for smell associated with the reward (peppermint) • Tv: Searching time for smell not associated with the reward (vanilla)
If the preferences for the two smells are equivalent, PI will be 50. Since crickets inherently prefer vanilla smell over peppermint smell, an average PI value prior to the learning/training is usually 25-35, The preference test was conducted before and after the learning/training to examine whether preference for the smell changes due to the learning/training.
As drugs, melatonin, N(1)-acetyl-N(2)-formyl-5-methoxykynuramine (AFMK), N(1)-acetyl-5-methoxykynuramine (AMK), 6-Hydroxymelatonin (6-HM), L-kynurenine, kynuramine, 8-Bromoguanoine 3′,5′-cyclic monophosphate sodium salt (8 br-cGMP) and cycloheximide (CHX) were used. Melatonin, 6-HM, kynurenine, kynuramine and 8br-cGMP were purchased from SIGMA Aldrich, AFMK was purchased from Cayman Chemical, AMK was purchased from Toronto Research Chemicals and CHX was purchased from Wako Pure Chemical Industries. The drugs other than 8br-cGMP and CHX were first dissolved in ethanol and then diluted with physiological saline for crickets to the respective concentrations. In the administration experiment, 3 μl was administered using a 10-μl syringe to the brain via an aperture opened through a simple eye of the head.
PI values were tested before the training and a day after the training in the same group by a Wilcoxon's-test.

SMILES | effect in inducing long-term memory after one day (young crickets [1]) | also measured
COc1ccc(N)c(C(=O)CCNC(C)=O)c1 [Compound 1, N-[3-(2-amino-5-methoxyphenyl)-3-oxopropyl]-acetamide] | Significant effects | 
CCC(=O)NCCC(=O)c1cc(OC)ccc1N [Compound 2, N-[3-(2-amino-5-methoxyphenyl)-3-oxopropyl]-propionamide] | Significant effects | 
COc1ccc(N)c(C(=O)CCNC(=O)c2ccccc2)c1 [Compound 3, N-[3-(2-amino-5-methoxyphenyl)-3-oxopropyl]-benzamide] | Significant effects | 
COc1ccc(C(=O)NCCC(=O)c2cc(OC)ccc2N)cc1 [Compound 4, N-[3-(2-amino-5-methoxyphenyl)-3-oxopropyl]-4-methoxybenzamide] | Significant effects | 
COc1ccc(N)c(C(=O)CCNC(=O)c2ccccc2OC)c1 [Compound 5, N-[3-(2-amino-5-methoxyphenyl)-3-oxopropyl]-2-methoxybenzamide] | Significant effects | 
COc1ccc(N)c(C(=O)CCNC(=O)c2ccccn2)c1 [Compound 7, N-[3-(2-amino-5-methoxyphenyl)-3-oxopropyl]-2-picolinamide] | Significant effects | 
CC(=O)NCCC(=O)c1ccccc1N [Compound 9, N-[3-(2-aminophenyl)-3-oxopropyl]acetamide] | Significant effects | 
COc1ccc(NC=O)c(C(=O)CCNC(C)=O)c1 [Compound 10, N-[3-(2-formylamino-5-methoxyphenyl)-3-oxopropyl]acetamide] | did not show significant difference with the number of individuals used this time but they showed a tendency to induce long-term memories | long-term memory formation a day after the training (young crickets [2]; 40 nM, 3 μl to the brain, 20 minutes after single-time training): not; long-term memory formation a day after the training (young crickets [2]; 0.2 μM, 3 μl to the brain, 20 minutes after single-time training): not; long-term memory formation a day after the training (young crickets [2]; 1 μM, 3 μl to the brain, 20 minutes after single-time training): formed; long-term memory formation a day after the training (young crickets [2]; 5 μM, 3 μl to the brain, 20 minutes after single-time training, listed as AFMK): long-term memories were formed; long-term memory formation a day after the training (young crickets [2]; 5 μM, 3 μl to the brain, 20 minutes before single-time training): long-term memories were formed; long-term memory formation a day after the training (young crickets [2]; 5 μM, 3 μl, administered between 20 minutes before and 20 minutes after single-time training): long-term memory was formed; timing of administration sufficient to form long-term memory (young crickets [2]): up to 20 minutes
COc1ccc2[nH]cc(CCNC(C)=O)c2c1 [melatonin, reference compound] |  | timing of administration sufficient to form long-term memory (young crickets [2]): up to 20 minutes
